Laboratory results from paper doi:10.1101/563957.
No constants are given. Whether binding was seen depends on the method and setting. Binding seen in cells or lysates may run through a third protein. Some results given as binding are weak or reduced against the parent protein; the word gives no strength.

Protein sequences, listed by entry. Tags and fused reporters are not part of them. Residues count along the entry.
UniProt P31421, residues 19-872: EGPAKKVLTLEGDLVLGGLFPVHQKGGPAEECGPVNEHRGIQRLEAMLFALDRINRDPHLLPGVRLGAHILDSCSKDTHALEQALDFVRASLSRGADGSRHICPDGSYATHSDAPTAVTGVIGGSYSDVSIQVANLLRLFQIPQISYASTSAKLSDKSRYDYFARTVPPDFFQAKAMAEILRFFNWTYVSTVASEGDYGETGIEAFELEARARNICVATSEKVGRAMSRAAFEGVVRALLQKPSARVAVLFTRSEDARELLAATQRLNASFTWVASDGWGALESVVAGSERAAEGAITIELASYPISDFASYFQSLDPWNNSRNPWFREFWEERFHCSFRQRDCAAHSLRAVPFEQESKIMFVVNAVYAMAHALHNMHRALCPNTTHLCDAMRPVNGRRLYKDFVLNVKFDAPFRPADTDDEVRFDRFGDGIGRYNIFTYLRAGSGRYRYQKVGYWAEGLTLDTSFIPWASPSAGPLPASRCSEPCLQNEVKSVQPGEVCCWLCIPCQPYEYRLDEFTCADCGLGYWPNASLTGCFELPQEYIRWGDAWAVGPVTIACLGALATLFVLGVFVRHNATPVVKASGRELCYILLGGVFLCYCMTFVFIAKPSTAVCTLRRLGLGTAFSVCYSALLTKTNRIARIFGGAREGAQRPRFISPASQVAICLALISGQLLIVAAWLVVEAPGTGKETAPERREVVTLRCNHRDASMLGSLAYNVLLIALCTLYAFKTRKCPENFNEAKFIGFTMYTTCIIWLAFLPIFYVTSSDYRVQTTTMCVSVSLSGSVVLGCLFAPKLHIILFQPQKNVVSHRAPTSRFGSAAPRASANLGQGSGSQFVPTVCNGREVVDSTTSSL

Experiments:
[1] = molecular target: HA-SNAP-mGluR2 (not stated (rat or human cDNA cloned)) (UniProt P31421); assay: FRET or BRET
[2] = molecular target: HA-SNAPf-mGluR2 (not stated (rat or human cDNA cloned)) (UniProt P31421); assay: FRET or BRET

| Substance | binding [1] | binding [2] |
| --- | --- | --- |
| HA-SNAP-mGluR2 (from UniProt P31421 19-872) (receptor) | binds | – |
| HA-SNAPf-mGluR2 (from UniProt P31421 19-872) (receptor) | – | binds |
